Results are given in words; binding and its absence hold for the method and conditions named. For some of these results: Binding can be weak; no strength is given.
What was measured:
rat insulin (rat) = assay: ELISA
[1] = molecular target: IGFBP-3 (IGF-binding protein 3); assay: Biacore, mAb immobilised, IGFBP-3 454 nM; called nonspecific

Binder	binding (rat insulin (rat))	binding [1]
mAb 7.159.2 (ATCC Accession Number PTA-7424) (antibody, V domains shown) VH: QVQLVQSGAEVKKPGASVKVSCKASGYTFTSYDINWVRQATGQGLEWMGWMNPNSGNTGYAQKFQGRVTMTRNTSISTAYMELSSLRSEDTAVYYCARDPYYYYYGMDVWGQGTTVTVSS VL: QSVLTQPPSVSAAPGQKVTISCSGSSSNIENNHVSWYQQLPGTAPKLLIYDNNKRPSGIPDRFSGSKSGTSATLGITGLQTGDEADYYCETWDTSLSAGRVFGGGTKLTVLG	no binding	binds
mAb 7.34.1 (ATCC Accession Number PTA-7423) (antibody, V domains shown) VH: QVQLQESGPGLVKPSETLSLTCTVSGGSISSYYWSWIRQPPGRGLEWIGYFFYSGYTNYNPSLKSRVTMSVDTSKNQFSLKLSSVTAADTAVYYCACITGTTKGGMDVWGQGATVTVSS VL: QSVLTQAPSVSGAPGQRVTISCTGRSSNIGAGYDVHWYQQFPGTAPKLLIYGNSNRPSGVPDRFSGSKSGTSASLAITGLQAEDEADYYCQSYDSSLSGSVFGGGTKLTVLG	no binding	binds
mAb 7.251.3 (ATCC Accession Number PTA-7422) (antibody, V domains shown) VH: QVQLQESGPGLVKPSETLSLTCTVSGGSISSYYWSWIRQPPGKGLEWIGYFFYSGYTNYNPSLKSRVTISVDTSKNQFSLKLSSVTAADTAVYYCACITGTTKGGMDVWGQGTTVTVSS VL: QSVLTQPPSVSGAPGQRVTISCTGSSSNIGAGYDVHWYQQLPGTAPKLLIYGNNNRPSGVPDRFSGSKSGTSASLAITGLQADDEADYYCQSFDSSLSGSVFGGGTKLTVLG	no binding	binds
mAb 7.234.2 (antibody, V domains shown) VH: QLQLQESGPGLVKPSETLSLTCTVSGGSINSSSNYWGWIRQPPGKGLAWIGGIYYSGSTYYNPSLRSRVTMSVDTSKNQFSLKLSSVTAADTAVYYCARQRGHSSGWWYFDLWGRGTLVTVSS VL: DIQMTQSPSSVSASVGDRVTITCRASRGISSWLAWYQQRPGKAPKLLIYTASSLQSGVPSRFSGSGSGTDFTLTISSLQPEDFATYYCQQANSFPFTFGPGTKVDIKR	no binding	

From patent US20070196376A1
